For experiment [1], the system named is ReNCell VM. Nature of the experiment: neuronal differentiation score (DCX+ cell fraction vs untreated, manual image score) (score (-3 to 3)); higher = more neuronal differentiation. Conditions: 2 uM, 2 weeks.
Experiment [2] has as its system ReNCell VM. Put plainly: dopaminergic neuron differentiation score (TH+ cell fraction vs untreated, manual image score) (score (0 to 3)); higher = more TH+ dopaminergic neuron differentiation. The note with it: 2 uM, 4 weeks, BDNF 10 ng/ml + GDNF 10 ng/ml.

The results in this text go back to the supplement of paper PMC4635364.

Structures can show the parent of a compound that is named as a salt. The list shows a part of the results. Repeats in this data set agree poorly, so a single value says little.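 Human fetal ventral-midbrain neural progenitor line ReNCell VM, differentiated without mitogens. Images stained for doublecortin (early neurons) or tyrosine hydroxylase (dopaminergic neurons) were scored by blinded raters against untreated wells (0 = no change). Repeats and both raters were averaged, and compounds averaging 2 or higher were picked as hits for retesting.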

As to `O=C(O)C1CCNCC1` [Isonipecotic acid], in the experiment with ReNCell VM [1] (library: LOPAC), the neuronal differentiation score is inactive: 0. In addition, the “dopaminergic neuron differentiation score” value in the experiment on ReNCell VM [2] (library: LOPAC) was inactive: 0.
As to `COC(=O)/C=C/C(C)=C\C=C\C(C)=C\C=C\C=C(C)\C=C\C=C(C)\C=C\C(=O)O`, the neuronal differentiation score in the experiment on ReNCell VM [1] (library: Spectrum) was inactive: 0. In addition, the “dopaminergic neuron differentiation score” value with ReNCell VM [2] (library: Spectrum) is inactive: 0.
On to `CC1=C(/C=C/C(C)=C/C=C/C(C)=C\C(=O)O)C(C)(C)CCC1`, for which the neuronal differentiation score with ReNCell VM [1] (library: Spectrum) was inactive: 0. The “dopaminergic neuron differentiation score” value with ReNCell VM [2] (library: Spectrum) was inactive: 0.
With `COC(=O)[C@H]1[C@H]2C[C@H]3c4[nH]c5ccccc5c4CCN3C[C@@H]2CC[C@@H]1O`, the neuronal differentiation score with ReNCell VM [1] (library: Spectrum) was inactive: 0. Further, the “dopaminergic neuron differentiation score” value in the experiment with ReNCell VM [2] (library: Spectrum) was inactive: 0.
In the case of `CC(C)(C)NCC(O)c1ccc(O)c(CO)c1` (stereo not given) [Albuterol hemisulfate], in the experiment with ReNCell VM [1] (library: LOPAC), the neuronal differentiation score was inactive: 0. Besides, the “dopaminergic neuron differentiation score” value in the experiment on ReNCell VM [2] (library: LOPAC) was inactive: 0.
Turning to `CCCC(C(=O)OCCN(CC)CC)(c1ccccc1)c1ccccc1` [Proadifen hydrochloride], the neuronal differentiation score with ReNCell VM [1] (library: Prestwick) was inactive: 0. Also, in the experiment on ReNCell VM [2] (library: Prestwick), the “dopaminergic neuron differentiation score” value is inactive: 0.
Turning to `CCCCCN(C)CCC(O)(P(=O)(O)O)P(=O)(O)O` [Ibandronate sodium], in the experiment with ReNCell VM [1] (library: Prestwick), the neuronal differentiation score was inactive: 0. Moreover, the “dopaminergic neuron differentiation score” value in the experiment with ReNCell VM [2] (library: Prestwick) is inactive: 0.
As for `CCC(Cc1c(I)cc(I)c(N)c1I)C(=O)O` (stereo not given), the neuronal differentiation score in the experiment on ReNCell VM [1] (library: Spectrum) is inactive: 0. Also, the “dopaminergic neuron differentiation score” value in the experiment on ReNCell VM [2] (library: Spectrum) was inactive: 0.
On to `CC1(C)CCCC2(C)C1CCC1(C)OC(=O)CC12` (stereo not given) [norambreinolide], for which the neuronal differentiation score in the experiment on ReNCell VM [1] (library: Natural) was inactive: 0. For the same molecule, the “dopaminergic neuron differentiation score” value in the experiment on ReNCell VM [2] (library: Natural) is inactive: 0.
Take `CCN(CC)CCCCCCCCOC(=O)c1cc(OC)c(OC)c(OC)c1` [TMB-8 hydrochloride]: in the experiment on ReNCell VM [1] (library: LOPAC), the neuronal differentiation score was inactive: 1. Also, in the experiment with ReNCell VM [2] (library: LOPAC), the “dopaminergic neuron differentiation score” value was inactive: 0.
The corresponding values for `CCCCCCCCCCCCCCCCCCOCC(COP(=O)([O-])OCC[N+](C)(C)C)OC` (stereo not given) are inactive: 0 and inactive: 0.
As for `NC(N)=O`, the neuronal differentiation score in the experiment on ReNCell VM [1] (library: Spectrum) is inactive: 0. For the same molecule, in the experiment on ReNCell VM [2] (library: Spectrum), the “dopaminergic neuron differentiation score” value was inactive: 0.
`CCn1cc(C(=O)O)c(=O)c2cc(F)c(N3CCNC(C)C3)c(F)c21` (stereo not given): the neuronal differentiation score in the experiment with ReNCell VM [1] (library: Spectrum) was inactive: 1. For the same molecule, the “dopaminergic neuron differentiation score” value in the experiment with ReNCell VM [2] (library: Spectrum) was inactive: 0.
As to `C[C@H](CCC(=O)NCCS(=O)(=O)O)[C@H]1CC[C@H]2[C@@H]3[C@H](O)C[C@@H]4C[C@H](O)CC[C@]4(C)[C@H]3C[C@H](O)[C@]12C` [Sodium Taurocholate hydrate], in the experiment with ReNCell VM [1] (library: LOPAC), the neuronal differentiation score is inactive: 1. Besides, the “dopaminergic neuron differentiation score” value with ReNCell VM [2] (library: LOPAC) is inactive: 0.
On to `CC(C)CCC[C@@H](C)[C@H]1CC[C@H]2[C@@H]3C=CC4=CC(=O)CC[C@]4(C)[C@H]3CC[C@]12C`, for which, in the experiment on ReNCell VM [1] (library: Spectrum), the neuronal differentiation score is inactive: 0. In addition, the “dopaminergic neuron differentiation score” value with ReNCell VM [2] (library: Spectrum) was inactive: 0.
Turning to `CC(=O)Oc1ccccc1C(=O)Oc1ccccc1C(=O)O`, the neuronal differentiation score with ReNCell VM [1] (library: Spectrum) is inactive: 0. The “dopaminergic neuron differentiation score” value with ReNCell VM [2] (library: Spectrum) was inactive: 0.
As for `CC1(C)C=Cc2c(c3c(c4c(=O)c(-c5ccc(O)c(O)c5)coc24)OC(C)(C)CC3)O1`, in the experiment on ReNCell VM [1] (library: Spectrum), the neuronal differentiation score was inactive: 0. In the experiment on ReNCell VM [2] (library: Spectrum), the “dopaminergic neuron differentiation score” value was inactive: 0.
As for `C=CC(C)(O)CCC1C(=C)CC(OC(C)=O)C2C(C)(C)CCCC12C` (stereo not given), the neuronal differentiation score in the experiment on ReNCell VM [1] (library: Spectrum) is inactive: 0. The “dopaminergic neuron differentiation score” value with ReNCell VM [2] (library: Spectrum) is inactive: 0.
Regarding `Nc1ccccc1S(N)(=O)=O`, the neuronal differentiation score in the experiment on ReNCell VM [1] (library: Spectrum) is inactive: 0. Moreover, the “dopaminergic neuron differentiation score” value in the experiment with ReNCell VM [2] (library: Spectrum) is inactive: 0.
Take `CC(N)C(=O)OC(C)(C)Cc1ccc(Cl)cc1` (stereo not given) [Alaproclate hydrochloride]: in the experiment on ReNCell VM [1] (library: LOPAC), the neuronal differentiation score is inactive: 0. The “dopaminergic neuron differentiation score” value in the experiment with ReNCell VM [2] (library: LOPAC) was inactive: 0.
As for `CC(C)(C)CC(C)(C)c1cc(Cc2cc(C(C)(C)CC(C)(C)C)cc(-n3nc4ccccc4n3)c2O)c(O)c(-n2nc3ccccc3n2)c1`, the neuronal differentiation score in the experiment with ReNCell VM [1] (library: Spectrum) is inactive: 0. For the same molecule, the “dopaminergic neuron differentiation score” value with ReNCell VM [2] (library: Spectrum) was inactive: 0.
As for `CN(C(=O)C(Cl)Cl)c1ccc(OC(=O)c2ccco2)cc1`, the neuronal differentiation score in the experiment on ReNCell VM [1] (library: Spectrum) is inactive: 0. Further, the “dopaminergic neuron differentiation score” value in the experiment with ReNCell VM [2] (library: Spectrum) is inactive: 0.
`COc1cc2nc(N3CCN(C(=O)C4COc5ccccc5O4)CC3)nc(N)c2cc1OC` (stereo not given): the neuronal differentiation score in the experiment with ReNCell VM [1] (library: Spectrum) is inactive: 0. Further, the “dopaminergic neuron differentiation score” value in the experiment on ReNCell VM [2] (library: Spectrum) was inactive: 0.
As for `COc1ccc(NS(=O)(=O)c2ccc(N)cc2)nn1`, the neuronal differentiation score with ReNCell VM [1] (library: Spectrum) is inactive: 0. Also, the “dopaminergic neuron differentiation score” value in the experiment with ReNCell VM [2] (library: Spectrum) is inactive: 0.
`CCN(CC)CCOC(=O)c1cc(Cl)c(N)cc1OC` [SDZ-205,557 hydrochloride]: the neuronal differentiation score in the experiment with ReNCell VM [1] (library: LOPAC) is inactive: 0. Moreover, in the experiment on ReNCell VM [2] (library: LOPAC), the “dopaminergic neuron differentiation score” value was inactive: 0.
Turning to `CCCCNc1cc(C(=O)O)cc(S(N)(=O)=O)c1Oc1ccccc1`, the neuronal differentiation score in the experiment with ReNCell VM [1] (library: Spectrum) is inactive: 0. Further, the “dopaminergic neuron differentiation score” value in the experiment with ReNCell VM [2] (library: Spectrum) is inactive: 0.
In the case of `O=C(O)CCC(=O)c1ccc(-c2ccccc2)cc1` [Fenbufen], the neuronal differentiation score with ReNCell VM [1] (library: Prestwick) was inactive: 0. The “dopaminergic neuron differentiation score” value in the experiment with ReNCell VM [2] (library: Prestwick) is inactive: 0.
For `Cc1cc(O)c2c(c1)C(=O)c1cccc(O)c1C2=O` [1,8-Dihydroxy-3-methylanthraquinone], in the experiment with ReNCell VM [1] (library: Phytochemical), the neuronal differentiation score is inactive: 0. Also, the “dopaminergic neuron differentiation score” value in the experiment on ReNCell VM [2] (library: Phytochemical) was inactive: 0.
`CC(C)=CCCC1(C)C=Cc2c(c(C)cc3c2[nH]c2ccccc23)O1` (stereo not given) [Mahanimbine]: the neuronal differentiation score with ReNCell VM [1] (library: Phytochemical) was inactive: 0. Further, the “dopaminergic neuron differentiation score” value in the experiment with ReNCell VM [2] (library: Phytochemical) was inactive: 0.
Take `NC(C(=O)O)C(O)C(=O)O` (racemic) [DL-threo-beta-hydroxyaspartic acid]: the neuronal differentiation score in the experiment with ReNCell VM [1] (library: LOPAC) was inactive: 0. The “dopaminergic neuron differentiation score” value in the experiment on ReNCell VM [2] (library: LOPAC) was inactive: 0.
As for `C[C@]12CC[C@@H]3c4ccc(O)cc4CC[C@H]3[C@@H]1C[C@H](O)[C@@H]2O`, the neuronal differentiation score in the experiment with ReNCell VM [1] (library: Spectrum) is inactive: 0. The “dopaminergic neuron differentiation score” value with ReNCell VM [2] (library: Spectrum) was inactive: 0.
For `CCCn1c(=O)c2[nH]c(C3CCCC3)nc2n(CCC)c1=O` [8-Cyclopentyl-1,3-dipropylxanthine], in the experiment with ReNCell VM [1] (library: LOPAC), the neuronal differentiation score was inactive: -1. In the experiment with ReNCell VM [2] (library: LOPAC), the “dopaminergic neuron differentiation score” value was inactive: 0.
Turning to `Cn1c(=O)c2nc(C3CCCC3)[nH]c2n(C)c1=O`, the neuronal differentiation score in the experiment on ReNCell VM [1] (library: Spectrum) was inactive: 0. In addition, in the experiment on ReNCell VM [2] (library: Spectrum), the “dopaminergic neuron differentiation score” value is inactive: 0.
`COc1ccc([C@H]2CNC(=O)C2)cc1OC1CCCC1` [(S)-(+)-Rolipram]: the neuronal differentiation score in the experiment on ReNCell VM [1] (library: Tocriscreen) is inactive: 0. Also, the “dopaminergic neuron differentiation score” value in the experiment on ReNCell VM [2] (library: Tocriscreen) was inactive: 0.
Regarding `CC1(COc2ccc(CC3SC(=O)NC3=O)cc2)CCCCC1` (stereo not given) [Ciglitazone], the neuronal differentiation score in the experiment on ReNCell VM [1] (library: Tocriscreen) is inactive: 0. Moreover, the “dopaminergic neuron differentiation score” value with ReNCell VM [2] (library: Tocriscreen) is inactive: 0.
